Test results reported in article PMC7797037.

T1: GTPBP5::FLAG (C-terminal FLAG-tagged GTPBP5) (human) (UniProt Q9H4K7)
T1 sequence: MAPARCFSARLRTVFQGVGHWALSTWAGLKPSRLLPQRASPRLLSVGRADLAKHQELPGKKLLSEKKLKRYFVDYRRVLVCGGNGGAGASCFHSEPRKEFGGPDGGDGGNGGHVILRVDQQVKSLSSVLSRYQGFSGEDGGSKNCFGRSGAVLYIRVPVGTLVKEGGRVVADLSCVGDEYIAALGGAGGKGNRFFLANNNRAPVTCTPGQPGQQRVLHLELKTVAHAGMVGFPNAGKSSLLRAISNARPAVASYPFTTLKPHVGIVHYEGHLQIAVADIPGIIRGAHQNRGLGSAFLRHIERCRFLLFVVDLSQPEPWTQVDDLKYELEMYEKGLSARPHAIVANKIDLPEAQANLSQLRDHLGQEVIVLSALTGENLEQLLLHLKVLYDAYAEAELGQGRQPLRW

B1: mitochondrial rRNA methyltransferase 2 (MRM2) (enzyme, UniProt Q9UI43 19-246)
chain: TVGSRCKNRTGAEHLWLTRHLRDPFVKAAKVESYRCRSAFKLLEVNERHQILRPGLRVLDCGAAPGAWSQVAVQKVNAAGTDPSSPVGFVLGVDLLHIFPLEGATFLCPADVTDPRTSQRILEVLPGRRADVILSDMAPNATGFRDLDHDRLISLCLTLLSVTPDILQPGGTFLCKTWAGSQSRRLQRRLTEEFQNVRIIKPEASRKESSEVYFLATQYHGRKGTVKQ
B2: MRM3 (enzyme, UniProt Q9HC36 41-420)
chain: VFPSGEVVEQKRAPGKQPRKAPSEASAQEQREKQPLEESASRAPSTWEESGLRYDKAYPGDRRLSSVMTIVKSRPFREKQGKILLEGRRLISDALKAGAVPKMFFFSRLEYLKELPVDKLKGVSLIKVKFEDIKDWSDLVTPQGIMGIFAKPDHVKMTYPKTQLQHSLPLLLICDNLRDPGNLGTILRSAAGAGCSKVLLTKGCVDAWEPKVLRAGMGAHFRMPIINNLEWETVPNYLPPDTRVYVADNCGLYAQAEMSNKASDHGWVCDQRVMKFHKYEEEEDVETGASQDWLPHVEVQSYDSDWTEAPAAVVIGGETYGVSLESLQLAESTGGKRLLIPVVPGVDSLNSAMAASILLFEGKRQLRGRAEDLSRDRSYH
B3: FASTKD4 (protein, UniProt Q969Z0 108-631)
chain: SHLLSEKPEDKGLLIQDAHFHQLLCLLNSQIASVWHGTLSKLLGSLYALGIPKASKELQSVEQEVRWRMRKLKYKHLAFLAESCATLSQEQHSQELLAELLTHLERRWTEIEDSHTLVTVMMKVGHLSEPLMNRLEDKCLELVEHFGPNELRKVLVMLAAQSRRSVPLLRAISYHLVQKPFSLTKDVLLDVAYAYGKLSFHQTQVSQRLATDLLSLMPSLTSGEVAHCAKSFALLKWLSLPLFEAFAQHVLNRAQDITLPHLCSVLLAFARLNFHPDQEDQFFSLVHEKLGSELPGLEPALQVDLVWALCVLQQAREAELQAVLHPEFHIQFLGGKSQKDQNTFQKLLHINATALLEYPEYSGPLLPASAVAPGPSALDRKVTPLQKELQETLKGLLGSADKGSLEVATQYGWVLDAEVLLDSDGEFLPVRDFVAPHLAQPTGSQSPPPGSKRLAFLRWEFPNFNSRSKDLLGRFVLARRHIVAAGFLIVDVPFYEWLELKSEWQKGAYLKDKMRKAVAEELAK

Molecular target: T1, GTPBP5::FLAG (C-terminal FLAG-tagged GTPBP5) (human)
Assay: affinity purification with mass spectrometry; FLAG-IP from lysate of mitochondria isolated from HEK293T expressing GTPBP5::FLAG (48 h), buffers with 5 mM MgCl2, elution with 3X FLAG peptide; label-free quantitative mass spectrometry against control HEK293T without FLAG protein, n = 3

Binder	binding
B1	binds
B2	no binding
B3	no binding

Results are given in words; binding and its absence hold for the method and conditions named. In cells and extracts the contact can be indirect. A yes stands for co-enrichment or nearness to the bait. Other partners may have been found. No binding means not detected with the bait. Where a sequence is shown, tags or fusion partners need not be part of it.
